Experimental data: article PMC8803112
No constants are given. Whether binding was seen depends on the method and setting. Binding seen in cells or lysates may run through a third protein. Here binding means that the protein was enriched with, or labelled near, the bait; the list need not be complete.

The chains behind the UniProt entries cited, without tags or fusion partners. Residues count along the entry.
UniProt P02675, residues 45-491: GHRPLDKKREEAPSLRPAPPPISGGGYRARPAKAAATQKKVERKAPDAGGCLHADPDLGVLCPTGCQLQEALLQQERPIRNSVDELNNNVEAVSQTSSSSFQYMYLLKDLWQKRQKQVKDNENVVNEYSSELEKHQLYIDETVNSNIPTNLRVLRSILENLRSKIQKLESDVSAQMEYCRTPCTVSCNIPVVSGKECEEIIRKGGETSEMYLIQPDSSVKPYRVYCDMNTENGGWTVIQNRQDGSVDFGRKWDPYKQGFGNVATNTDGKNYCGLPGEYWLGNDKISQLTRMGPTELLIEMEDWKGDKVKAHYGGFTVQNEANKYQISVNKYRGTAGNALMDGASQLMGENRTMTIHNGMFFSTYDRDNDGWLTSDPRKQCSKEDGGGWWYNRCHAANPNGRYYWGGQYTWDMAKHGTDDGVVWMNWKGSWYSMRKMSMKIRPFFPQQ
UniProt P04003, residues 49-597: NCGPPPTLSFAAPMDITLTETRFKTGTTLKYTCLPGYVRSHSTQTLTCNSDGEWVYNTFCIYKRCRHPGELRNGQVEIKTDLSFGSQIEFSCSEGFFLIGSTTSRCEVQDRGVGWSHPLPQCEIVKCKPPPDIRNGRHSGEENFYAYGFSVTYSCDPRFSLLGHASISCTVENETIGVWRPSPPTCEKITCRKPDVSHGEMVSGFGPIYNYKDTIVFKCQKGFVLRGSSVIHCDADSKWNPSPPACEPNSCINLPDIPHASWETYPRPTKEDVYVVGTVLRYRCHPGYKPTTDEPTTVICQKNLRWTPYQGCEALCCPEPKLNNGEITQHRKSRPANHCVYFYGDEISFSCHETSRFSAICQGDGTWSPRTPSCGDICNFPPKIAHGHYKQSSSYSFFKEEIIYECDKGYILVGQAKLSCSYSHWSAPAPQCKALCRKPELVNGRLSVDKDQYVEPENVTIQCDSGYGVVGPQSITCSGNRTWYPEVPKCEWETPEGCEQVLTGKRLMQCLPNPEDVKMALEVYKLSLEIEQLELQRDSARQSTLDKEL

Molecular target: complement evasion factor (CEF), recombinant Spy0136 (Streptococcus pyogenes SF370) (UniProt Q9A1R6)
Assay: affinity purification with mass spectrometry; rCEF coupled to CNBr-activated sepharose 4B; 100 µl fresh human plasma diluted to 500 µl in TSA buffer (10 mM Tris-HCl pH 8.0, 140 mM NaCl), 4°C 30 min; washed three times with RIPA buffer (500 mM NaCl); reducing SDS-PAGE, Coomassie bands cut out, LC-MS/MS; uncoupled beads as negative control; only the target purified

Molecule: fibrinogen β-chain (from UniProt P02675 45-491)
- binding: binds

Molecule: C4BPA (from human plasma) (from UniProt P04003 49-597)
- binding: binds

B1: Fibulin-1 (protein, UniProt P23142 30-703)
chain: DVLLEACCADGHRMATHQKDCSLPYATESKECRMVQEQCCHSQLEELHCATGISLANEQDRCATPHGDNASLEATFVKRCCHCCLLGRAAQAQGQSCEYSLMVGYQCGQVFQACCVKSQETGDLDVGGLQETDKIIEVEEEQEDPYLNDRCRGGGPCKQQCRDTGDEVVCSCFVGYQLLSDGVSCEDVNECITGSHSCRLGESCINTVGSFRCQRDSSCGTGYELTEDNSCKDIDECESGIHNCLPDFICQNTLGSFRCRPKLQCKSGFIQDALGNCIDINECLSISAPCPIGHTCINTEGSYTCQKNVPNCGRGYHLNEEGTRCVDVDECAPPAEPCGKGHRCVNSPGSFRCECKTGYYFDGISRMCVDVNECQRYPGRLCGHKCENTLGSYLCSCSVGFRLSVDGRSCEDINECSSSPCSQECANVYGSYQCYCRRGYQLSDVDGVTCEDIDECALPTGGHICSYRCINIPGSFQCSCPSSGYRLAPNGRNCQDIDECVTGIHNCSINETCFNIQGGFRCLAFECPENYRRSAATLQQEKTDTVRCIKSCRPNDVTCVFDPVHTISHTVISLPTFREFTRPEEIIFLRAITPPHPASQANIIFDITEGNLRDSFDIIKRYMDGMTVGVVRQVRPIVGPFHAVLKLEMNYVVGGVVSHRNVVNVHIFVSEYWF
- binding: binds
